Laboratory results from patent US20260027190A1, “OVARIAN TUMOR DEUBIQUITINASE OXIDATION AND USES THEREOF” (The University of Vermont and State Agricultural College, priority 2022, published 2026).
These are yes or no findings as the source states them, for the method shown. For some of these results: Binding seen in cells or lysates may run through a third protein. Some entries that bind do so weakly or less than the wild type.

Sequences of proteins named here, by UniProt entry; tags and fusion partners are left off. A change or cut given only in a name is not applied to a line headed by its entry. Residues count along the entry.
UniProt Q9UPY5: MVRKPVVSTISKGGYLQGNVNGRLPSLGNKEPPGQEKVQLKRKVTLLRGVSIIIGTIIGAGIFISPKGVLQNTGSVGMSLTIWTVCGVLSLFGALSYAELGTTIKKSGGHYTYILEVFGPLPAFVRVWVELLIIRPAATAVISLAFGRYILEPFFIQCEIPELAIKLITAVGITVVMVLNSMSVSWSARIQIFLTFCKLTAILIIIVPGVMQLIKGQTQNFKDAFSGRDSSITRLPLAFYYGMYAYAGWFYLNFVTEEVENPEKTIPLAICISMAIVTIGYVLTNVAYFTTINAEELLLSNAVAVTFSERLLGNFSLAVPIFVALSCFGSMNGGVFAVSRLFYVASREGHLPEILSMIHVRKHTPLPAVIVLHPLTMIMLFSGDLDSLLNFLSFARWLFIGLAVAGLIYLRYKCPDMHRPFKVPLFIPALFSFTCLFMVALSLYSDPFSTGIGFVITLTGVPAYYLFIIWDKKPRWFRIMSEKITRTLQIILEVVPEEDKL
UniProt Q96FW1: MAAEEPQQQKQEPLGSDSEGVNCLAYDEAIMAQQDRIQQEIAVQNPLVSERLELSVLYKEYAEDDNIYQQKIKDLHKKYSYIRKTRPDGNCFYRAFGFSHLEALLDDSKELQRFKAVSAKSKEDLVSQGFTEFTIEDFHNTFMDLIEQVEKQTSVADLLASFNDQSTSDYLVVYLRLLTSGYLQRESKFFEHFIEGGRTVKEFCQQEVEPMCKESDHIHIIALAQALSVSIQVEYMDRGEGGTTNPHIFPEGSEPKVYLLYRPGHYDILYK
UniProt P10852: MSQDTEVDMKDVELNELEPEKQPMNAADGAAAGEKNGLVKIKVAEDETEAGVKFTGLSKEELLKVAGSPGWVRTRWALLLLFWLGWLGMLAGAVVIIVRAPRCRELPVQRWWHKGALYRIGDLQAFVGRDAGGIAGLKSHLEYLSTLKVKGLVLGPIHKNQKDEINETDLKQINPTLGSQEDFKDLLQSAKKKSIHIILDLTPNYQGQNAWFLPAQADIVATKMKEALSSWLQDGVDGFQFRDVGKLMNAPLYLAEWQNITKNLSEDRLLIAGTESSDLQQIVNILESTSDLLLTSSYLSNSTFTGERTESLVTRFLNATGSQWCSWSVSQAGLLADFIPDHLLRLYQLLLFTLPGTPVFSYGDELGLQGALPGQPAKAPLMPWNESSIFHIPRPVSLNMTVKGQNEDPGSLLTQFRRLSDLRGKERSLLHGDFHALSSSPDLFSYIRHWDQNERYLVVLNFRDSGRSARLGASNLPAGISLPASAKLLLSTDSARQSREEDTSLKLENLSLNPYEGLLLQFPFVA
UniProt Q7TQI3, residues 2-271: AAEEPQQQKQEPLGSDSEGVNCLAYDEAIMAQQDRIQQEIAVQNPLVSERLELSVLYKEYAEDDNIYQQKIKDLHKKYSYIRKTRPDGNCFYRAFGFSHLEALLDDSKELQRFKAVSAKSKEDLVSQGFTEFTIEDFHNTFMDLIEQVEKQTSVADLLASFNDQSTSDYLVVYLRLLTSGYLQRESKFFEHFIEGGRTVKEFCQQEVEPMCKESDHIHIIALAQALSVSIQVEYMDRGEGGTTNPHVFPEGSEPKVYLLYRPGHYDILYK

Columns and labels:
[1] = biological target: HA-tagged SLC7A11 overexpressed in H522 lung adenocarcinoma cells (UniProt Q9UPY5); test: immunoprecipitation and Western blot, H522 cells (figure legend)
[2] = biological target: HA-tagged SLC7A11 overexpressed in H522 lung adenocarcinoma cells (UniProt Q9UPY5); test: immunoprecipitation of HA-SLC7A11 or OTUB1 and Western blot, H522 cells (FIG. 5A)
[3] = biological target: T1, solute carrier family 7 member 11 (SLC7A11), endogenous in mouse tracheal epithelial (MTE) cells (mouse) (UniProt Q9WTR6); test: co-immunoprecipitation from MTE cell lysates after IL1B (FIG. 3C); also found together in the ~120 kDa complex by 2D PAGE (FIG. 3B)
T1 sequence (looked up): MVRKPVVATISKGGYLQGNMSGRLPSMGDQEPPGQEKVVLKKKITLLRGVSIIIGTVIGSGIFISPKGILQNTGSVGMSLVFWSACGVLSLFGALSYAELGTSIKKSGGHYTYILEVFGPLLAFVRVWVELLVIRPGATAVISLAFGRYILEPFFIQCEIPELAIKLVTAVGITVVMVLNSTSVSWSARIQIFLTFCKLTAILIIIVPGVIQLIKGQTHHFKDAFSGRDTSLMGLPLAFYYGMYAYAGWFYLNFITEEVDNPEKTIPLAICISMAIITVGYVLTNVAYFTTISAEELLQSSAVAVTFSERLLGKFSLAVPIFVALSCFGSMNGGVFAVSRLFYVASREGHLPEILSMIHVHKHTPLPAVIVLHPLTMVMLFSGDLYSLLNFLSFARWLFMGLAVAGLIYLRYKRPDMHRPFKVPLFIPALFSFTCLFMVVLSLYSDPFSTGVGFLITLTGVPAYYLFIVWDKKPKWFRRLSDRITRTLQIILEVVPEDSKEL

[4] = biological target: T1, solute carrier family 7 member 11 (SLC7A11), endogenous in mouse tracheal epithelial (MTE) cells (mouse); test: non-reducing Western blot, 2D PAGE and co-immunoprecipitation, MTE cells (figure legend)
[5] = biological target: HA-tagged SLC7A11 overexpressed in H522 lung adenocarcinoma cells (UniProt Q9UPY5); test: anti-HA immunoprecipitation and SLC3A2 blot, H522 cells overexpressing SLC7A11-HA and OTUB1-C212S, compared with OTUB1-WT (FIG. 7F)
[6] = biological target: HA-tagged SLC7A11 overexpressed in H522 lung adenocarcinoma cells (UniProt Q9UPY5); test: anti-HA immunoprecipitation and Western blot, H522 cells (figure legend)
[7] = biological target: HA-tagged SLC7A11 overexpressed in H522 lung adenocarcinoma cells (UniProt Q9UPY5); test: anti-HA immunoprecipitation and SLC3A2 blot, H522 cells overexpressing SLC7A11-HA and OTUB1-C204S, compared with OTUB1-WT (FIG. 7E)
[8] = biological target: HA-tagged SLC7A11 overexpressed in H522 lung adenocarcinoma cells (UniProt Q9UPY5); test: anti-HA immunoprecipitation and SLC3A2 blot, H522 cells overexpressing SLC7A11-HA and OTUB1-C23S, compared with OTUB1-WT (FIG. 7E)
[9] = biological target: HA-tagged SLC7A11 overexpressed in H522 lung adenocarcinoma cells (UniProt Q9UPY5); test: anti-HA immunoprecipitation and SLC3A2 blot, H522 cells overexpressing SLC7A11-HA and OTUB1-C91S, compared with OTUB1-WT (FIG. 7F)

binding [1] | binding [2] | binding [3] | binding [4] | binding [5] | binding [6] | binding [7] | binding [8] | binding [9] | Substance
binds | binds | – | – | – | – | – | – | – | ovarian tumor deubiquitinase (OTUB1) in H522 lung adenocarcinoma cells (from UniProt Q96FW1 2-271) (enzyme)
– | – | binds | binds | – | – | – | – | – | solute carrier family 3 member 2 (SLC3A2), endogenous in mouse tracheal epithelial (MTE) cells (from UniProt P10852 1-526)
– | – | binds | binds | – | – | – | – | – | ovarian tumor deubiquitinase-1 (OTUB1), endogenous in mouse tracheal epithelial (MTE) cells (from UniProt Q7TQI3 2-271) (enzyme)
binds | binds | – | – | binds | binds | binds | binds | binds | SLC3A2 in H522 lung adenocarcinoma cells (from UniProt P08195 2-529)
